Results from patent US20100204099A1 (ALBERT EINSTEIN COLLEGE OF MEDICINE OF YESHIVA UNIVERSITY, published 2010).
Results are given in words; binding and its absence hold for the method and conditions named. Some binding calls cover weakened binding; strength is not graded here.

Sequences of proteins named here, by UniProt entry; tags and fusion partners are left off. A change or cut given only in a name is not applied to a line headed by its entry. A line that says so, or that is headed by a name, gives the form on record, which may keep a tag or linker. Residues count along the entry.
UniProt P05019, residues 49-118: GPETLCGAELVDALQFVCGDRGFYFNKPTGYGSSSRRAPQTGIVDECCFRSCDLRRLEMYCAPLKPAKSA
IGF binding protein-3 (IGFBP-3) (P17936, residues 28-291): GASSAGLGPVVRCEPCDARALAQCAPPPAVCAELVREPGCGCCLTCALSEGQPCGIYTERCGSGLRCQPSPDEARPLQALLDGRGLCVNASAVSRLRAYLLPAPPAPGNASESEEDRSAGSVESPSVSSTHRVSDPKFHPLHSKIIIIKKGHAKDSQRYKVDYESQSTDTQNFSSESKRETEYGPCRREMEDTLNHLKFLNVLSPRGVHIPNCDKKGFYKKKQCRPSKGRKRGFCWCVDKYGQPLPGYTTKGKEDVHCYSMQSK
NLS mutant of IGFBP-3 (P17936, form named): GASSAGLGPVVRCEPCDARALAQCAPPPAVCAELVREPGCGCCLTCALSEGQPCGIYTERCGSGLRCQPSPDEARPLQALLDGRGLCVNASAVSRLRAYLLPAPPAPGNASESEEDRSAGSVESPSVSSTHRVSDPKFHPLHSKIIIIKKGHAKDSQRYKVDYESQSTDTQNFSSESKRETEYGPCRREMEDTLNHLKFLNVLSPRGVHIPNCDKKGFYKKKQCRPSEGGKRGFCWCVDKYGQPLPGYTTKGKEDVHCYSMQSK

Target: 125I-labeled IGF-1 (UniProt P05019)
Test: Western ligand blot with 125I-labeled IGF-1

Row | Substance | binding
1 | IGF binding protein-3 (IGFBP-3) (from UniProt P17936 28-291) | binds
2 | NLS mutant of IGFBP-3 (from UniProt P17936 28-291) | binds
